# Data reported in the supplement of paper PMC7666118.
# By UniProt entry, the sequences of proteins in these tests, tags left out. Where a name states a change or a piece, a line headed by the entry shows the natural chain unless it says otherwise.
# UniProt Q8WUD1: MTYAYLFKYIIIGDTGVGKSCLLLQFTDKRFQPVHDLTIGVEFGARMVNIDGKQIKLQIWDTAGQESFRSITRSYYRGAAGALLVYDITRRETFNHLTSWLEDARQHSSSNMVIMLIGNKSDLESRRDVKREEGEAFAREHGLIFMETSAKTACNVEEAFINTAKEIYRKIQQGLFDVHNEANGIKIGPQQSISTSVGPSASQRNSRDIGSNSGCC
# UniProt Q8N5U6: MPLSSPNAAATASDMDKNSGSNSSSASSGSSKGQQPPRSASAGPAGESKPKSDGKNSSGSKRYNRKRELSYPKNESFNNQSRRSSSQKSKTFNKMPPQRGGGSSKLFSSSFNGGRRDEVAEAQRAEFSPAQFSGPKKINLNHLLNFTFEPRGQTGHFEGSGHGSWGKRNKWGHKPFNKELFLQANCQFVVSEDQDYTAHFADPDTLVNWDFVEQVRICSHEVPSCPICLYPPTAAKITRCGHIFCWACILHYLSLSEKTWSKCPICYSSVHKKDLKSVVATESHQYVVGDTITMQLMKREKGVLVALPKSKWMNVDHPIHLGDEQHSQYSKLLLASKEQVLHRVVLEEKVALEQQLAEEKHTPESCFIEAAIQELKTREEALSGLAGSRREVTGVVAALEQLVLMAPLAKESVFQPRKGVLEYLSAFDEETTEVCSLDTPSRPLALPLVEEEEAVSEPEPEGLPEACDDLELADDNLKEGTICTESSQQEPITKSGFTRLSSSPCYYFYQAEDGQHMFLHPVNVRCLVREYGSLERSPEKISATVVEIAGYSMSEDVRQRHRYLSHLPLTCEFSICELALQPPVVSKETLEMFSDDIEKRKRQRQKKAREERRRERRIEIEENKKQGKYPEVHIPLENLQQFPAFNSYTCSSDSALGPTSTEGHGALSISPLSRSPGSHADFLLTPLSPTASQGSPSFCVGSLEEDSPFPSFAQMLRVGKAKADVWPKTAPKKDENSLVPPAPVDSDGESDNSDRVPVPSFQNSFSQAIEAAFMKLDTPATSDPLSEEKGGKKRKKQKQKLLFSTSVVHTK
# UniProt Q9ULZ3, whole entry: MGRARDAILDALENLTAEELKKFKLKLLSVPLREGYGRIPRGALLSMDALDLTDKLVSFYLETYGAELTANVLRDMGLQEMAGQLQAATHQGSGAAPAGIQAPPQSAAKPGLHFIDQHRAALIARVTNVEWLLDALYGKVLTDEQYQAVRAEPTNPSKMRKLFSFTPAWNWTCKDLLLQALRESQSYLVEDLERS
# UniProt O94822: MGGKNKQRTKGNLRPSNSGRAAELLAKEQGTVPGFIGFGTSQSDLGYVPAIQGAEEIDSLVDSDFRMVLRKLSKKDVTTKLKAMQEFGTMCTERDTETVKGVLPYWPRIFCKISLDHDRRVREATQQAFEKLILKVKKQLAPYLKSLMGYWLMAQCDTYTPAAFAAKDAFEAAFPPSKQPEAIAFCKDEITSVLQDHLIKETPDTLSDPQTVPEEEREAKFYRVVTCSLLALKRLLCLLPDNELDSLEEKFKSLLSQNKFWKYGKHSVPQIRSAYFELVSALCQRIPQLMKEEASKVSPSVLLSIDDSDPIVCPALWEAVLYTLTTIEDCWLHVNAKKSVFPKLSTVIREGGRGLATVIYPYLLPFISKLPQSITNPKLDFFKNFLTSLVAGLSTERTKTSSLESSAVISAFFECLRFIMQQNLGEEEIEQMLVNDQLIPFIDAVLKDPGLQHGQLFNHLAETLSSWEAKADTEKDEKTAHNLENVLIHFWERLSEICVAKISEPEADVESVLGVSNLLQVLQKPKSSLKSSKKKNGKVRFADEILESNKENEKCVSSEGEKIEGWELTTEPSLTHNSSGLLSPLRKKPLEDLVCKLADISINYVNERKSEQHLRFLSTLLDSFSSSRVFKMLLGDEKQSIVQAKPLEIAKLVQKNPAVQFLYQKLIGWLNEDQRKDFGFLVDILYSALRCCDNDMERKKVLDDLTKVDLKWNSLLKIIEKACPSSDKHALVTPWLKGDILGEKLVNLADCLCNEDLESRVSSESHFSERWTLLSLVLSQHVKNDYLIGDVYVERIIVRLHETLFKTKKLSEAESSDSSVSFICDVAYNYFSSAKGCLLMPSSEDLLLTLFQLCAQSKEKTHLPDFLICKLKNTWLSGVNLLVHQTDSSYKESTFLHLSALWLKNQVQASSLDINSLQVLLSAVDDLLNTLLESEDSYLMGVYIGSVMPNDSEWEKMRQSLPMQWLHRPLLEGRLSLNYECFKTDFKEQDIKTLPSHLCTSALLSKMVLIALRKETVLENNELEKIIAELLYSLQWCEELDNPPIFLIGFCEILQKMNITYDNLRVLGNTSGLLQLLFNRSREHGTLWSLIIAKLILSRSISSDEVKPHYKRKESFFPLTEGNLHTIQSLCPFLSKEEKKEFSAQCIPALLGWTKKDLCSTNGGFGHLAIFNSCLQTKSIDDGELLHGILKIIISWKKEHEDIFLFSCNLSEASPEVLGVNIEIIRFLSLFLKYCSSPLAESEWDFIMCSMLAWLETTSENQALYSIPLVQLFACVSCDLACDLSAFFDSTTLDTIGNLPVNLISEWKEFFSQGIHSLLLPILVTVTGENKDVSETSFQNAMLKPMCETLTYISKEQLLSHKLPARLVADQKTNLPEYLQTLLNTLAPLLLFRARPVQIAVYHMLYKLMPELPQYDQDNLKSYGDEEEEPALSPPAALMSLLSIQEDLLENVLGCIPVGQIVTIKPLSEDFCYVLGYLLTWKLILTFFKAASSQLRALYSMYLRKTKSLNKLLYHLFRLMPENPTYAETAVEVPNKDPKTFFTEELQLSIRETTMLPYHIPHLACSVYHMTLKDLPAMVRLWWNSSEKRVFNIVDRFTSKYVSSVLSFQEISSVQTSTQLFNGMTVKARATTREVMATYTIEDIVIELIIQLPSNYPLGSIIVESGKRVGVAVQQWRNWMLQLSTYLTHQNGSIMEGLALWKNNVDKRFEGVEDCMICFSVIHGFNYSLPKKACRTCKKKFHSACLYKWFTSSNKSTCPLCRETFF
# UniProt P49023, whole entry: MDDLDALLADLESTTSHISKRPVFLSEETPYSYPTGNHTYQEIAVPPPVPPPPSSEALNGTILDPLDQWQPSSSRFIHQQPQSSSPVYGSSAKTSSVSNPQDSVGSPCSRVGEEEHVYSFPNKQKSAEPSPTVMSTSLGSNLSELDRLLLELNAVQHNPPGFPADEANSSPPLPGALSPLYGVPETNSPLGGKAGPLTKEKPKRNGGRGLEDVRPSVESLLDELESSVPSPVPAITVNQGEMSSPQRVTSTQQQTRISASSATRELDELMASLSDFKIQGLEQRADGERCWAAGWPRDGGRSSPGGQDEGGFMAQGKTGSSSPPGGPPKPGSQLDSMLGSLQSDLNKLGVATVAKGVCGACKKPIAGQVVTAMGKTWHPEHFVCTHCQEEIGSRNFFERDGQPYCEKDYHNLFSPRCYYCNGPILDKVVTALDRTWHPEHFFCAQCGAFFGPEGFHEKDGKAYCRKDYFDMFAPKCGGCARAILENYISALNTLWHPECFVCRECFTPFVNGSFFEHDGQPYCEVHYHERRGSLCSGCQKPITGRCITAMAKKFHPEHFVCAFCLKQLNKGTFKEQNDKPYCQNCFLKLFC
# UniProt Q09028, whole entry: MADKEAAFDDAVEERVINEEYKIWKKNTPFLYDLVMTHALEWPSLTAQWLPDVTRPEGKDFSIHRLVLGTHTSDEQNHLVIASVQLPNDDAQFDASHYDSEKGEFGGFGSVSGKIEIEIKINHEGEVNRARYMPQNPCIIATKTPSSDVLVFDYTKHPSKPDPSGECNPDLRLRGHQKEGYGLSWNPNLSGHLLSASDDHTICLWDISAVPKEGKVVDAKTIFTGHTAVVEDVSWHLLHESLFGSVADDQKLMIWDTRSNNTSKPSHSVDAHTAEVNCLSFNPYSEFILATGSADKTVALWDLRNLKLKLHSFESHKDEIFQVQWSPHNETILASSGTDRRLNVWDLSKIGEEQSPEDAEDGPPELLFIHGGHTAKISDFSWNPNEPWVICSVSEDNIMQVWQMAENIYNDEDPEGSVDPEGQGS
# UniProt P40937, whole entry: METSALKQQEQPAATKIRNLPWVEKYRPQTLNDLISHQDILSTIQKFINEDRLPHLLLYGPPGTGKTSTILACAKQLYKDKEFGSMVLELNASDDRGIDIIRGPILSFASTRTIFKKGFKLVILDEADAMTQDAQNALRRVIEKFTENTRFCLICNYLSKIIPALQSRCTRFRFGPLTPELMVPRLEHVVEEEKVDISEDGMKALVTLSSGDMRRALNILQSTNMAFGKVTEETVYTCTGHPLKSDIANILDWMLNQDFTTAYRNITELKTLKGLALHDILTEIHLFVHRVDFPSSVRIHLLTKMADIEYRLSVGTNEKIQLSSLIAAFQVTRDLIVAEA
# UniProt Q9H974: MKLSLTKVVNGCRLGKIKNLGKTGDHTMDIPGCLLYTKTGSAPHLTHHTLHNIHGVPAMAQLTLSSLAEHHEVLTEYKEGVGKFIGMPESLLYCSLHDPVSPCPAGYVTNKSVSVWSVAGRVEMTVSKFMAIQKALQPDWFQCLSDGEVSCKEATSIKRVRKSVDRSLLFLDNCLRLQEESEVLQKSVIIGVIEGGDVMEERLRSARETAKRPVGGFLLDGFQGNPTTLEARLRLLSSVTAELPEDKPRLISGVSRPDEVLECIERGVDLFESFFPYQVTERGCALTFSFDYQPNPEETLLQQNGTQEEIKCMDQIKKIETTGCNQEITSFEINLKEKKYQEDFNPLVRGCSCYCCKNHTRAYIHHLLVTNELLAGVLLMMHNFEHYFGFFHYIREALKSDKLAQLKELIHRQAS
# UniProt Q9NX57: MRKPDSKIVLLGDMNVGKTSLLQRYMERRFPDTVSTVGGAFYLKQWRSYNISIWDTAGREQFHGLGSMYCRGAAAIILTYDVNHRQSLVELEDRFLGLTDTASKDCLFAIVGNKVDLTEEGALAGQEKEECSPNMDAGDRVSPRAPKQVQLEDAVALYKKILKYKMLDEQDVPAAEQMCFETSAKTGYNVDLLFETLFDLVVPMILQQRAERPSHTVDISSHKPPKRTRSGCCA
# UniProt Q8IXI1, whole entry, looked up: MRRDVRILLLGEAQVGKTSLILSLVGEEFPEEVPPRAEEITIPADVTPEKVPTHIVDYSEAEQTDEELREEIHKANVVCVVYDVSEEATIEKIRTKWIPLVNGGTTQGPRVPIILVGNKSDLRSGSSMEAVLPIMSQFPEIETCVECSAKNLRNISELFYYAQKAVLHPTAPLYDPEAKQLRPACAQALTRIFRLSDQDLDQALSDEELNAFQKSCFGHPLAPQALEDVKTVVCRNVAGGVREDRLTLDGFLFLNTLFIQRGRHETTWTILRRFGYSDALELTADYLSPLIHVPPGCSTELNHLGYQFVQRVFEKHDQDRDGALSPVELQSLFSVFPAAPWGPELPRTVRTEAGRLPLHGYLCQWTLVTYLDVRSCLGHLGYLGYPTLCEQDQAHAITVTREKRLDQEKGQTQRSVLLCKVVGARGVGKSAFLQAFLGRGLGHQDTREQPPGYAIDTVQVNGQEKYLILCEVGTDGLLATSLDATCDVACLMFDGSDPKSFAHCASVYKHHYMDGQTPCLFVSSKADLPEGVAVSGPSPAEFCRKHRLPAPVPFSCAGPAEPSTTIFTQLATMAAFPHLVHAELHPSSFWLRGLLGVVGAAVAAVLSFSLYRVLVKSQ
# UniProt Q9H871: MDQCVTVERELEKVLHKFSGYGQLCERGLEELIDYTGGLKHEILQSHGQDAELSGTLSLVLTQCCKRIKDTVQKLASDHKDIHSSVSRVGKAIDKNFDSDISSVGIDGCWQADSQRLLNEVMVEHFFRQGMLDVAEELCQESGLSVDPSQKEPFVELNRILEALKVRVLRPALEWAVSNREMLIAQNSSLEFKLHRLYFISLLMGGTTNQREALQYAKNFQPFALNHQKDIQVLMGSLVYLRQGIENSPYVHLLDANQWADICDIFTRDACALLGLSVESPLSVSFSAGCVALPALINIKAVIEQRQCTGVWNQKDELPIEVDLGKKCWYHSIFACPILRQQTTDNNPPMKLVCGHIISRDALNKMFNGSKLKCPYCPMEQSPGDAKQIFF
# UniProt Q9BVS4: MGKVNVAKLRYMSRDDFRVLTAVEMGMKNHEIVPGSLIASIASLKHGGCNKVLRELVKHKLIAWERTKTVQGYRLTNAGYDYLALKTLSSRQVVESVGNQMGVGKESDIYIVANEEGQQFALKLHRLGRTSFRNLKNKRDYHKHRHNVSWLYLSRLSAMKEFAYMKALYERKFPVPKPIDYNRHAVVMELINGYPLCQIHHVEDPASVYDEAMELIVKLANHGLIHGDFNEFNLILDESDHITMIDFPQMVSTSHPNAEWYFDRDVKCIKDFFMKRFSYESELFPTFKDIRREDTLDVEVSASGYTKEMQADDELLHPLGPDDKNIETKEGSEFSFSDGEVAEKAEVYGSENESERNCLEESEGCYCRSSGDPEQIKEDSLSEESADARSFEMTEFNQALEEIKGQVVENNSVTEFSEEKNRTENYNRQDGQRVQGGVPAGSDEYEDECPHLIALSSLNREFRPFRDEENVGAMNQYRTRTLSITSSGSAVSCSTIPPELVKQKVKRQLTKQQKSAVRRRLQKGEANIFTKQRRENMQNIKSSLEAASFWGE
# The list shows a part of the results.
# Compound: COc1ccc(Cn2ccc3cc(C)c(C(=O)NO)cc32)cc1
# Test: dose-dependent thermal stabilisation call (2D-TPP, DLPTP, 10% FDR) (binary (1 = stabilised)); higher = stabilised by the compound
# Settings: system: HL-60 intact cells; concentration range 0.04-10 µM
# Experimental: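 2D thermal proteome profiling in intact HL-60 cells treated with BRD-3811 (0, 0.04, 0.29, 2, 10 uM) for 90 min at 37 C, then heated 3 min at one of 12 temperatures (42-63.9 C). Soluble protein was quantified by TMT10 MS. The value is the DLPTP call of the paper: dose-dependent thermal stabilisation over all temperatures at 10% FDR (F-test of a dose-response against a flat model); one experiment, one call per tested protein.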
row,Target,dose-dependent thermal stabilisation call
1,RBBP6 (UniProt Q7Z6E9),inactive: 0
2,RAB5A (UniProt P20339),inactive: 0
3,RBBP7 (UniProt Q16576),inactive: 0
4,RABL4 (UniProt Q9BW83),inactive: 0
5,RAB2B (UniProt Q8WUD1),inactive: 0
6,RAB11B (UniProt Q15907),inactive: 0
7,RNF10 (UniProt Q8N5U6),inactive: 0
8,RAB22A (UniProt Q9UL26),inactive: 0
9,PYCARD (UniProt Q9ULZ3),inactive: 0
10,RNF160 (UniProt O94822),inactive: 0
11,PXN (UniProt P49023),inactive: 0
12,RBBP4 (UniProt Q09028),inactive: 0
13,RNF185 (UniProt Q96GF1),inactive: 0
14,RFC5 (UniProt P40937),inactive: 0
15,QTRTD1 (UniProt Q9H974),inactive: 0
16,PTRH2 (UniProt Q9Y3E5),inactive: 0
17,RELA (UniProt Q04206),inactive: 0
18,RAI1 (UniProt Q7Z5J4),inactive: 0

# 3 entries from above, bar-delimited.
row | Target | dose-dependent thermal stabilisation call
7 | RNF10 (UniProt Q8N5U6) | inactive: 0
8 | RAB22A (UniProt Q9UL26) | inactive: 0
9 | PYCARD (UniProt Q9ULZ3) | inactive: 0

# (listing goes on)

row,Target,dose-dependent thermal stabilisation call
1,RABEP1 (UniProt Q15276),inactive: 0
2,RBM10,inactive: 0
3,RAB20 (UniProt Q9NX57),inactive: 0
4,QTRT1 (UniProt Q9BXR0),inactive: 0
5,PTPRF (UniProt P10586),inactive: 0
6,RHOT2 (UniProt Q8IXI1),inactive: 0
7,RFX7 (UniProt Q2KHR2),inactive: 0
8,RHEB (UniProt Q15382),inactive: 0
9,RMND5A (UniProt Q9H871),inactive: 0
10,RBPJ (UniProt Q06330),inactive: 0
11,RBM42 (UniProt Q9BTD8),inactive: 0
12,R3HDM1 (UniProt Q15032),inactive: 0
13,PUM2 (UniProt Q8TB72),inactive: 0
14,PUS1 (UniProt Q9Y606),inactive: 0
15,RAB5C (UniProt P51148),inactive: 0
16,RANBP3 (UniProt Q9H6Z4),inactive: 0
17,RAD51AP1 (UniProt Q96B01),inactive: 0
18,RIOK2 (UniProt Q9BVS4),inactive: 0
